Source: patent publication US9170264B2, “Methods of monitoring for adherence to aripiprazole therapy” (Ameritox, Ltd., priority 2013, dated 2015)

Columns and labels:
Type in all cases: in vivo, human
[1] = Urine testing for compliance over 5 days, patients prescribed 15 mg/day Abilify (Example 5); details: 15 mg Abilify; 69 opportunities
Description: (§1) The concentration of any analyte described in the present disclosure may be determined (e.g., measured) by any suitable quantification method. In some embodiments, the concentration of an analyte (e.g., aripiprazole, dehydroaripiprazole, and/or OPC3373) is measured by tandem liquid chromatography-mass spectrometry-mass spectrometry (“LC/MSMS”). In some embodiments, the concentration of an analyte (e.g., aripiprazole, dehydroaripiprazole, and/or OPC3373) is measured by tandem liquid chromatography-High Resolution mass spectrometry (Time of Flight (TOF)) (“LC/MS(TOF)”). In some embodiments, the concentration of an analyte (e.g., aripiprazole, dehydroaripiprazole, and/or OPC3373) is measured by direct injection mass spectrometry-mass spectrometry ([…]) e.g., such systems as RapidFire™ (Agilent) or Laser Diode Thermal Desorption (“LDTD”) (Phytronix) to introduce samples into the mass spectrometer; either triple quadrupole (i.e., MSMS) or exact mass (i.e., Time of Flight, Orbitrap, etc.) instruments
The urine of 23 patients who were prescribed 15 mg of Abilify® (aripiprazole) was tested for compliance over 5 days (Table 7). […] Without OPC3373, only 78% were determined to be positive with patients just being below the reporting cutoffs for both aripiprazole and dehydroaripiprazole. […] Thus, use of OPC3373 as a urine biomarker at this dose adds value to compliance monitoring for Abilify®.

[2] = Urine testing for compliance over 5 days, patients prescribed 2 mg/day Abilify (Example 8); details: for % Positive (urine): 2 mg/day Abilify
Description: as §1
The urine of 15 patients who were prescribed 2 mg of Abilify® (aripiprazole) was tested for compliance over 5 days (Table 14). […] Without OPC3373, only 24% were determined to be positive with patients just being below the reporting cutoffs for both aripiprazole and dehydroaripiprazole. Thus, use of OPC3373 as a urine biomarker at this lower dose makes compliance monitoring for Abilify® possible. […] However, OPC3373 in subject M confirmed the subject's adherence to aripirazole therapy despite the low observed creatinine level.

[3] = Urine testing for compliance over 5 days, patients prescribed 30 mg/day Abilify (Example 3); details: 30 mg Abilify; 15 opportunities
Description: as §1
The urine of 5 patients who were prescribed 30 mg of Abilify® (aripiprazole) was tested for compliance over 5 days (Table 3). […] Without OPC3373, only 93% were determined to be positive with one patient either having stopped taking their medicine between day 4 and 5 or just being below the reporting cutoffs for both aripiprazole and dehydroaripiprazole. Thus, use of OPC3373 as a urine biomarker even at this relatively high dose adds value to compliance monitoring for Abilify®.

[4] = Urine testing for compliance over 5 days, patients prescribed 20 mg/day Abilify (Example 4); details: 20 mg Abilify; 66 opportunities
Description: as §1
The urine of 22 patients who were prescribed 20 mg of Ability (e.g., aripiprazole) was tested for compliance over 5 days (Table 5). […] Without OPC3373, only 85% were determined to be positive with patients just being below the reporting cutoffs for both aripiprazole and dehydroaripiprazole. Thus, use of OPC3373 as a urine biomarker even at this relatively high dose adds value to compliance monitoring for Abilify®.

[5] = Urine testing for compliance over 5 days, patients prescribed 10 mg/day Abilify (Example 6); details: 10 mg Abilify; 111 opportunities
Description: as §1
The urine of 37 patients who were prescribed 10 mg of Abilify® (aripiprazole) was tested for compliance over 5 days (Table 9). […] Without OPC3373, only 61% were determined to be positive with patients just being below the reporting cutoffs for both aripiprazole and dehydroaripiprazole. Thus, use of OPC3373 as a urine biomarker at this dose adds value to compliance monitoring for Abilify®.

[6] = Levels of OPC3373, aripiprazole and dehydroaripiprazole in urine of humans taking chronic doses of aripiprazole (Example 1); details: 22 specimens
Description: as §1
The appearance of OPC3373 (4-[(2-Oxo-1,2,3,4-tetrahydro-7-quinolinyl)oxy]butanoic acid, BMS-337047) as the major aripiprazole metabolite in the urine can be used to help monitor patient adherence to aripiprazole therapy. […]

SMILES	determined to be positive without OPC3373 (aripiprazole and dehydroaripiprazole only) [1]	determined to be positive without OPC3373 (aripiprazole and dehydroaripiprazole only) ([2]; 2 mg Abilify, 45 opportunities)	% Positive (urine) ([2]; Day 1)	% Positive (urine) ([2]; Day 4)	% Positive (urine) ([2]; Day 5)	determined to be positive without OPC3373 (aripiprazole and dehydroaripiprazole only) [3]	determined to be positive without OPC3373 (aripiprazole and dehydroaripiprazole only) [4]	determined to be positive without OPC3373 (aripiprazole and dehydroaripiprazole only) [5]	correct identification of those taking the prescribed medicine, use of OPC3373 [1]	correct identification of those taking the prescribed medicine, use of OPC3373 ([2]; 2 mg Abilify, 45 opportunities)	correct identification of those taking the prescribed medicine, use of OPC3373 [3]	% POS with OPC3373 only [6]	% NEG at 100/5/5 ng/mL Cutoff ([6]; cutoffs OPC3373/dehydroaripiprazole/aripiprazole)	correct identification of those taking the prescribed medicine, use of OPC3373 [4]	correct identification of those taking the prescribed medicine, use of OPC3373 [5]
O=C1CCc2ccc(OCCCCN3CCN(c4cccc(Cl)c4Cl)CC3)cc2N1 [Aripiprazole]	78%	24%	53%	53%	47%	93%	85%	61%							
O=c1ccc2ccc(OCCCCN3CCN(c4cccc(Cl)c4Cl)CC3)cc2[nH]1 [Dehydroaripiprazole, dehydroaripiprazole]	78%	24%	7%	0 (0%)	0 (0%)	93%	85%	61%							
O=C(O)CCCOc1ccc2c(c1)NC(=O)CC2 [OPC3373, 4-[(2-Oxo-1,2,3,4-tetrahydro-7-quinolinyl)oxy]butanoic acid]			100%	100%	93%				99%	87%	100%	22.7%	27.2%	100%	99%
